Assay results from patent EP0792271B1, “FURAN DERIVATIVES FOR INHIBITING PNEUMOCYSTIS CARINII PNEUMONIA, GIARDIA LAMBLIA AND CRYPTOSPORIDIUM PARVUM” (priority 1994, dated 1996).
For at least one compound, name, drawing or mass did not settle the structure.

System: oligomer d(GCGCAATTGCGC)2
Test: DNA thermal melting (increase in Tm of oligomer)
Format: binding
Details: increase in thermal melting of the oligomer d(GCGCAATTGCGC)2; MES buffer pH 6.0
Experimental: Thermal melting curves for DNA and its complexes with compounds from Examples 4, 6, and 7-9 are determined as previously described in F.A. Tanious, et al., J.Biomol. Structure & Dynamics 11:1063 (1994) and W.D. Wilson, et al., Biochemistry 32:4098 (1993), by following the adsorption change at 260 nm as a function of temperature. Tm values were determined from first derivative plots. Compounds are compared by the increase in Tm (ΔTm=Tm of complex - Tm of the free nucleic acid) they produce in MES buffer (0.01M 2-(N-morpholino) ethanesulfonic acid, 0.001 M EDTA, 0.1 M NaCl adjusted to pH 6.0) at saturating amounts of compound (a ratio of 0.3 moles of compound to nucleic acid bases) unless otherwise indicated.

## c1cc(-c2ccc(-c3ccc(C4=NCCN4)cc3)o2)ccc1C1=NCCN1 [Compound 2, 2,5-bis[4-(2-imidazolinyl)phenyl]furan]
  ΔTm Oligomer: 11.4 °C
